Among the data in article PMC3758148 are binding values, retold here.

Results are given in words; binding and its absence hold for the method and conditions named. Where a sequence is shown, tags or fusion partners need not be part of it.

The assay has as its target 23S rRNA methyltransferase RlmJ from Escherichia coli, recombinant, with C-terminal hexahistidine tag (E. coli K-12 MG1655) (UniProt P37634). The assay is described as follows: SEC; HiLoad 16/60 Superdex 75, buffer A (20 mM Tris-H2SO4 pH 7.5, 150 mM Na2SO4, 5% glycerol, 5 mM beta-mercaptoethanol), room temperature; after Ni-affinity step; apparent mass against protein standards; both purified.

B1: 23S rRNA methyltransferase RlmJ from Escherichia coli, recombinant, with C-terminal hexahistidine tag (enzyme, UniProt P37634 1-280)
chain: MLSYRHSFHAGNHADVLKHTVQSLIIESLKEKDKPFLYLDTHAGAGRYQLGSEHAERTGEYLEGIARIWQQDDLPAELEAYINVVKHFNRSGQLRYYPGSPLIARLLLREQDSLQLTELHPSDYPLLRSEFQKDSRARVEKADGFQQLKAKLPPVSRRGLILIDPPYEMKTDYQAVVSGIAEGYKRFATGIYALWYPVVLRQQIKRMIHDLEATGIRKILQIELAVLPDSDRRGMTASGMIVINPPWKLEQQMNNVLPWLHSKLVPAGTGHATVSWIVPE
For the molecule B1, the binding result is listed as “no binding”.
